Assay results from patent publication US20080038235A1.
Results are given in words; binding and its absence hold for the method and conditions named. Some entries that bind do so weakly or less than the wild type.

The chains behind the UniProt entries cited, without tags or fusion partners. Residues count along the entry.
UniProt P54843, residues 171-370: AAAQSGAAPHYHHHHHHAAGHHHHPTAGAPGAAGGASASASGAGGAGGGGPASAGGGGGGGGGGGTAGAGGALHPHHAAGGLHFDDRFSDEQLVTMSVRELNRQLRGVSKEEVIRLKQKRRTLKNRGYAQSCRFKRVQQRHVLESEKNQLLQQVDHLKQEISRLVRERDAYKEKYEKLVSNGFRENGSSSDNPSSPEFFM

Assays:
[1] = molecular target: T1, recombinant NF-ATp containing the Rel domain of murine NF-ATp (in vitro translated from TP7-NF-ATp) (murine) (UniProt Q60591); assay: EMSA with the 33 bp IL-4 promoter oligonucleotide (NF-AT and MARE sites)
T1 sequence (looked up): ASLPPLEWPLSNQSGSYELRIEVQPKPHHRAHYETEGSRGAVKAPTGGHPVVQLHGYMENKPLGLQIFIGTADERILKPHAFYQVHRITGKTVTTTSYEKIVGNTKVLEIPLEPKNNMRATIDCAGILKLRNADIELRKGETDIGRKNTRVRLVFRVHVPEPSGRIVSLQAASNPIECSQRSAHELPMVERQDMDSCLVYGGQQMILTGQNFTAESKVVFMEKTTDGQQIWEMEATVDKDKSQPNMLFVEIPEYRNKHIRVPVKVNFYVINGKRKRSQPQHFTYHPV

[2] = molecular target: T1, recombinant NF-ATp containing the Rel domain of murine NF-ATp (in vitro translated from TP7-NF-ATp) (murine); assay: EMSA (legend of FIG. 6)

truncated c-Maf recombinant protein containing the b-zip domain (amino acids 171-371) (from UniProt P54843 171-370)
binding [1]: binds
binding [2]: binds
